The source of these data is the supplement of paper PMC11006884.

By UniProt entry, the sequences of proteins in these tests, tags left out. Where a name states a change or a piece, a line headed by the entry shows the natural chain unless it says otherwise.
UniProt Q9NU22: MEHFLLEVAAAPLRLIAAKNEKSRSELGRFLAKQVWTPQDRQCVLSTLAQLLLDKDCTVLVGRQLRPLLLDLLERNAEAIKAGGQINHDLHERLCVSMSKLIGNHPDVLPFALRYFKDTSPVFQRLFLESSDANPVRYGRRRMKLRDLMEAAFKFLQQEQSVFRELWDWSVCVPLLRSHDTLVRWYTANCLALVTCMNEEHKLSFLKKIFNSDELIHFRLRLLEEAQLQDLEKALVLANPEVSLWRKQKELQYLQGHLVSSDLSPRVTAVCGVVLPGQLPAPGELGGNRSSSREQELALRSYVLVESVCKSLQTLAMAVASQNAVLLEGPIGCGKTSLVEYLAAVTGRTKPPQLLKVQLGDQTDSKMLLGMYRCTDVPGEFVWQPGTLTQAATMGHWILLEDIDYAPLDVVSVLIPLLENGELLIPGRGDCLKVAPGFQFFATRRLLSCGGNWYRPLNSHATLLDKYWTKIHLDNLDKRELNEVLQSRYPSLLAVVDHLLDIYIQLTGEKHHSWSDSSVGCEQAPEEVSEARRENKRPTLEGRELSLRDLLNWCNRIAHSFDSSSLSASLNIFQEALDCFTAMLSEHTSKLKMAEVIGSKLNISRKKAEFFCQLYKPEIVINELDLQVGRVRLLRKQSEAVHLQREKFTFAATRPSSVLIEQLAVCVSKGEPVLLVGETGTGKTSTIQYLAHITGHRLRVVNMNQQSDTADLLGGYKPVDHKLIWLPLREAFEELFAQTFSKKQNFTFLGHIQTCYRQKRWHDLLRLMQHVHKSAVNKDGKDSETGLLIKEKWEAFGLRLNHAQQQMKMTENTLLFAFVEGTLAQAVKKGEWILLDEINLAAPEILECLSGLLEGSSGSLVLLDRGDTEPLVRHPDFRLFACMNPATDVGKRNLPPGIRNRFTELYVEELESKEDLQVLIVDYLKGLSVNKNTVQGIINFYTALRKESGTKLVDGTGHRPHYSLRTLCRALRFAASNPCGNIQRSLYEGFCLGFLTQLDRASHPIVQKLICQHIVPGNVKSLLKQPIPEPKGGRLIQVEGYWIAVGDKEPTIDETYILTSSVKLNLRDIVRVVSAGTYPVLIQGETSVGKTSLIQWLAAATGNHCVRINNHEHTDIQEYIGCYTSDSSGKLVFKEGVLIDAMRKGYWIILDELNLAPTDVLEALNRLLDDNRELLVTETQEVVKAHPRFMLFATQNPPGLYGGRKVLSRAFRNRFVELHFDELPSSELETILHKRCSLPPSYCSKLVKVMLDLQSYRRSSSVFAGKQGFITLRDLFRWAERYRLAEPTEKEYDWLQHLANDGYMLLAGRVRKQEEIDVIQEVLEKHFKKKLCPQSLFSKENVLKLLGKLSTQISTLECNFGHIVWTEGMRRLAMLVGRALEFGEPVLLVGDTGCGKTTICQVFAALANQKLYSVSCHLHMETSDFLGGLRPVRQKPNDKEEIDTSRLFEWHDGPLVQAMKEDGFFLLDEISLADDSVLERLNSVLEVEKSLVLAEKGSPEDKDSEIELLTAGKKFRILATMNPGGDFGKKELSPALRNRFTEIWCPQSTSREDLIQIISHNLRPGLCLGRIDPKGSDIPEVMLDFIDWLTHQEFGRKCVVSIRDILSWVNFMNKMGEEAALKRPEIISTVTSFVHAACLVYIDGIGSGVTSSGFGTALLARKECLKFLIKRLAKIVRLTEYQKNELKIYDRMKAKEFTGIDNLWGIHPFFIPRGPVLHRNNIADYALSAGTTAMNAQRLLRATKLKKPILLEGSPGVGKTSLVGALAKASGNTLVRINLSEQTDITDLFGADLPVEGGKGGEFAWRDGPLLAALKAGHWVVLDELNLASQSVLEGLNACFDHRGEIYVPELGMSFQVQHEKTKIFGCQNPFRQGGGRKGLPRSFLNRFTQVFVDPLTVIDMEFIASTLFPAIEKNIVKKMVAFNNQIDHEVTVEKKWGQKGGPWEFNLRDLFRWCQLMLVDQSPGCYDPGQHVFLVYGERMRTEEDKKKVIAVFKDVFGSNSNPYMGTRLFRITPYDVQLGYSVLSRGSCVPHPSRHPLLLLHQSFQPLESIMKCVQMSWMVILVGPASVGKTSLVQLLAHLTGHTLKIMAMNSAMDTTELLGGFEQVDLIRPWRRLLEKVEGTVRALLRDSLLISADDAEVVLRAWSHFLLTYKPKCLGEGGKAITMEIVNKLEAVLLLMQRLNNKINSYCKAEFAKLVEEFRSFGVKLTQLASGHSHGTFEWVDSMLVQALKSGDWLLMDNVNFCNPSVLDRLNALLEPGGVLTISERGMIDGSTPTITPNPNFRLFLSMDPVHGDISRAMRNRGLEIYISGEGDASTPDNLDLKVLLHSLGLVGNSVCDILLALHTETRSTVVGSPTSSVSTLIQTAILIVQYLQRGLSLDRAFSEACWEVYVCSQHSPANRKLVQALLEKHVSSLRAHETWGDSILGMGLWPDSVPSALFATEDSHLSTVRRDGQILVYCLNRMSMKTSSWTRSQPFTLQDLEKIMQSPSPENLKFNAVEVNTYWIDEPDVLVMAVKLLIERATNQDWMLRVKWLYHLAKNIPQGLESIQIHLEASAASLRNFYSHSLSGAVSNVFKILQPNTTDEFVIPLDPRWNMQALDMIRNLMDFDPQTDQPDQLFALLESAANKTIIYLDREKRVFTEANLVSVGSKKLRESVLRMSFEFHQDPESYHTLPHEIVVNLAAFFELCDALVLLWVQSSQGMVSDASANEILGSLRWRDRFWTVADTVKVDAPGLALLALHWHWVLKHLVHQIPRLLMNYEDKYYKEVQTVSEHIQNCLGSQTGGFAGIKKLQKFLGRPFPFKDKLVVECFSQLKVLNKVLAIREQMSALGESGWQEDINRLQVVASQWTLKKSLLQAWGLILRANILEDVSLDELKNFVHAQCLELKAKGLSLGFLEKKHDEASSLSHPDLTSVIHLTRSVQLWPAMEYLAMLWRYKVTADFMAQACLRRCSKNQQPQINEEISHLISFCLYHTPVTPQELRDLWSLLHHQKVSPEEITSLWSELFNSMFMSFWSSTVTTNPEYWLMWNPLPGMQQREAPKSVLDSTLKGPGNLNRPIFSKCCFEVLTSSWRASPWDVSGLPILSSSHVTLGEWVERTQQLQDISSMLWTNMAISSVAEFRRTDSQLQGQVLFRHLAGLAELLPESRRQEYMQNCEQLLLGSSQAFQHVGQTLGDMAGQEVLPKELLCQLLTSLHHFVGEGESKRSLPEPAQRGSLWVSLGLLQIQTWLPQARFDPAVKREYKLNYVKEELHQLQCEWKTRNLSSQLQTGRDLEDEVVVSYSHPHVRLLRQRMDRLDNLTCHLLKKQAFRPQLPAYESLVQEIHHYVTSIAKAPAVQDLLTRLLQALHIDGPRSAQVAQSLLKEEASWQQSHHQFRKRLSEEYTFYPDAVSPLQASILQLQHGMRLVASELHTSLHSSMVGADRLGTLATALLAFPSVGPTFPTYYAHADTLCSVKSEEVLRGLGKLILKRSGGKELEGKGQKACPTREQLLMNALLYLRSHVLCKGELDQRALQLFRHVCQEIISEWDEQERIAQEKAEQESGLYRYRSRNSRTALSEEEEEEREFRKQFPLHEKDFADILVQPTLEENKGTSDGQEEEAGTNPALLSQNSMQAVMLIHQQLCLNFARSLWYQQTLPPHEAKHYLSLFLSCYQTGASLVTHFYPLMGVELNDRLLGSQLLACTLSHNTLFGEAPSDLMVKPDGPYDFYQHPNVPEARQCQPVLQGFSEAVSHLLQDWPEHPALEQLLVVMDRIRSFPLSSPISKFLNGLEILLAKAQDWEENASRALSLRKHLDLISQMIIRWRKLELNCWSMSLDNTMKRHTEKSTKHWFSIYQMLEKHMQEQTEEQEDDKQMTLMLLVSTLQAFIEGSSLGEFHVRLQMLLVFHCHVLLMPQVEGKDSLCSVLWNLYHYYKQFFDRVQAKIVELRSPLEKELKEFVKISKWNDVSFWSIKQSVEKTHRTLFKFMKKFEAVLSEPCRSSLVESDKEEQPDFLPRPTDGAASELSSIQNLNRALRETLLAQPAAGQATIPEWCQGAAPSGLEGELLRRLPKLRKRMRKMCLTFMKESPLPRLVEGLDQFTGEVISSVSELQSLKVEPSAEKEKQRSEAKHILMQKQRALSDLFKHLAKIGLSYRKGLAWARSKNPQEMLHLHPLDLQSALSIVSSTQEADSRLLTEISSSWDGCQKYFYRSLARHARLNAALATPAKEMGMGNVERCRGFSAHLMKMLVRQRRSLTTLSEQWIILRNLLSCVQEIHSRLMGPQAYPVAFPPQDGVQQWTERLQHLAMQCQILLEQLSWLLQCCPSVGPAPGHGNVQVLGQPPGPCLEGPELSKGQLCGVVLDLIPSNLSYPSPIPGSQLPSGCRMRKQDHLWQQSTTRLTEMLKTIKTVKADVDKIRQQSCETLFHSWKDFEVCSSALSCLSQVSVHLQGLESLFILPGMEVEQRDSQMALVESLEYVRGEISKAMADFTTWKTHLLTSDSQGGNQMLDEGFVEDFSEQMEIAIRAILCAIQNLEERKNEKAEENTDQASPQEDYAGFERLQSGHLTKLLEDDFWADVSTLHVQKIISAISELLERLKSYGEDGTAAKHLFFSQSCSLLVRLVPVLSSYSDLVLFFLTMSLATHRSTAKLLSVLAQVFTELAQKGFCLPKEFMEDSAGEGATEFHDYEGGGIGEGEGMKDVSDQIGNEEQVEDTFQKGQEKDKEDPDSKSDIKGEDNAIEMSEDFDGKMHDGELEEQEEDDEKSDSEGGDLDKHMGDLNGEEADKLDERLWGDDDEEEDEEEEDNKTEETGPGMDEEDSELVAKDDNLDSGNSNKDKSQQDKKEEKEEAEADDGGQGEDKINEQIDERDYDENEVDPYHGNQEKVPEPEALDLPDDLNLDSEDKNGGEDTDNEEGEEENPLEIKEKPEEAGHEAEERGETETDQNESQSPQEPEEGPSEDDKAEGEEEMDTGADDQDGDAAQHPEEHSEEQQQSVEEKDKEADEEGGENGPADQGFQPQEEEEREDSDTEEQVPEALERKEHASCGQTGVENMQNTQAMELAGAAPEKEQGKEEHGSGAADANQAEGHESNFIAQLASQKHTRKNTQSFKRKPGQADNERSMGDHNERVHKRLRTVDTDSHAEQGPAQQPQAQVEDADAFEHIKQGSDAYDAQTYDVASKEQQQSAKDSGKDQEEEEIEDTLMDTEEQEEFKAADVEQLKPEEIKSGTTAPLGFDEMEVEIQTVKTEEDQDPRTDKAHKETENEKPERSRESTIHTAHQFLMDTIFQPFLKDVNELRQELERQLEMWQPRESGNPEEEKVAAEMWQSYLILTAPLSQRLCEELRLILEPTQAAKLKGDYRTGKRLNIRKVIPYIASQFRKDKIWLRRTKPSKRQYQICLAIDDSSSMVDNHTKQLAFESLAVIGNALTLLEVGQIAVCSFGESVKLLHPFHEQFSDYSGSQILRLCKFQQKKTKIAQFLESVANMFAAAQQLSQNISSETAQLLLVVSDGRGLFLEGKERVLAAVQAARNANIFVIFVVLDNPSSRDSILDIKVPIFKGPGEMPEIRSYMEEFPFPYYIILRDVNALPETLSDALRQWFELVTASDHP
UniProt Q9H9V9: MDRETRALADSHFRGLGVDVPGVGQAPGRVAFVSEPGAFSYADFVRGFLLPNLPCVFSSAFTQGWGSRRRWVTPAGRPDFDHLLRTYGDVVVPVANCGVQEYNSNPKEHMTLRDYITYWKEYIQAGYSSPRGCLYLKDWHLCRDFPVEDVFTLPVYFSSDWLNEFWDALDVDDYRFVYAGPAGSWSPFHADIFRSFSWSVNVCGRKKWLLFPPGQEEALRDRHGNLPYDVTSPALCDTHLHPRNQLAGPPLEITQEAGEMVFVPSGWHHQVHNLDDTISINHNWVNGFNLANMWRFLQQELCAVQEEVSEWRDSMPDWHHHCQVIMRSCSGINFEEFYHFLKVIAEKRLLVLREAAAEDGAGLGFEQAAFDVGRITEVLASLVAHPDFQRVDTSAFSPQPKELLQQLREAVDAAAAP
UniProt Q9H4L4: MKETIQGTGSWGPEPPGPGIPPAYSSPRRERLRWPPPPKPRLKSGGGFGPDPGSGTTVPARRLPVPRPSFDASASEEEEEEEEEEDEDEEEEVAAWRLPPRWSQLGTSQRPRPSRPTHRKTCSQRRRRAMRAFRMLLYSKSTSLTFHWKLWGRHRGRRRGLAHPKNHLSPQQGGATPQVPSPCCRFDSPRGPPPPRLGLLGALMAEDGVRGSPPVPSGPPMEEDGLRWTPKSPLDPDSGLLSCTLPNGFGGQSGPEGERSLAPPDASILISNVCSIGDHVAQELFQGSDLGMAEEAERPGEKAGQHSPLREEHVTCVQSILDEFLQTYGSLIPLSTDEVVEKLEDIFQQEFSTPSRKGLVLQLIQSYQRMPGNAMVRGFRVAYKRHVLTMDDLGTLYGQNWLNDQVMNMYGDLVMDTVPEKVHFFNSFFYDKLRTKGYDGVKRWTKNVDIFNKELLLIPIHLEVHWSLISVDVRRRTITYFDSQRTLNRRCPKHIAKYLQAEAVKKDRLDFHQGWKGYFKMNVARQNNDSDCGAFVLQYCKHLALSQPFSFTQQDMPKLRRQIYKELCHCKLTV

Only a part is listed here, and it is no random draw.

Compound in this experiment: COC(=O)C#Cc1ccccc1 [methyl 3-phenylpropiolate]
As to the kind of experiment: log2 ratio of iodoacetamide-alkyne labeling of the cysteine site, DMSO over compound (competition); higher = stronger covalent engagement of the cysteine by the compound, active = 1 or more. Conditions: 500 µM; treatment time 1 h; system: HEK293T cell lysate. The essentials: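 HEK293T lysate (2 mg/mL) was incubated with electrophile (500 µM) or vehicle for 1 h at ambient temperature and then with iodoacetamide alkyne for 1 h. Labelled proteins were clicked to sCIP-TMT reagents, pooled, digested, enriched on streptavidin and measured by Orbitrap Eclipse LC-MS/MS with FAIMS, with FragPipe quantification. The per-cysteine log2 competition ratio is mean control-channel reporter intensity over mean compound-channel reporter intensity. Across three replicates with duplicate channels, cysteines quantified in only one replicate were excluded.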
For the target MDN1 C1394 (UniProt Q9NU22), the “log2 ratio of iodoacetamide-alkyne labeling” value (shortened to “log2 ratio”) was inactive: 0.336.

On to ISYNA1 C235 (UniProt Q9NPH2), for which the “log2 ratio” value is inactive: -0.0574.

For the target HELLS C169 (UniProt Q9NRZ9), the “log2 ratio” value was inactive: 0.37.

As for DMAP1 C199 (UniProt Q9NPF5), the “log2 ratio” value was inactive: 0.00847.

Consider ZNF106 C1069 (UniProt Q9H2Y7), for which the “log2 ratio” value is inactive: 0.3.

In the case of CBX8 C261 (UniProt Q9HC52), the “log2 ratio” value was inactive: 0.434.

For the target LRRC40 C23 (UniProt Q9H9A6), the “log2 ratio” value is inactive: 0.78.

As for TUBB1 C12 (UniProt Q9H4B7), the “log2 ratio” value was inactive: 0.756.

For JMJD4 C101 (UniProt Q9H9V9), the “log2 ratio” value is inactive: 0.898.

Turning to UniProt Q9HBK9_C334, the “log2 ratio” value was inactive: 0.537.

Consider SMC4 C110 (UniProt Q9NTJ3), for which the “log2 ratio” value is inactive: 0.456.

With MDN1 C95 (UniProt Q9NU22), the “log2 ratio” value was inactive: 0.132.

Regarding CARS2 C526 (UniProt Q9HA77), the “log2 ratio” value is inactive: 0.206.

For the target SMC4 C190 (UniProt Q9NTJ3), the “log2 ratio” value was inactive: 0.109.

For YTHDC2 C1211 (UniProt Q9H6S0), the “log2 ratio” value is inactive: 0.279.

Regarding BIRC6 C381 (UniProt Q9NR09), the “log2 ratio” value is inactive: 0.225.

Take TFB2M C383 (UniProt Q9H5Q4): the “log2 ratio” value was inactive: 0.181.

For UniProt Q9H7C9_C122, the “log2 ratio” value was inactive: 0.113.

As to SENP3 C243 (UniProt Q9H4L4), the “log2 ratio” value is inactive: 0.523.

On to YTHDC2 C25 (UniProt Q9H6S0), for which the “log2 ratio” value is inactive: 0.178.

As for EPB41L5 C727 (UniProt Q9HCM4), the “log2 ratio” value was inactive: 0.311.

On to XPNPEP1 C502 (UniProt Q9NQW7), for which the “log2 ratio” value was inactive: 0.215.

Regarding DCP1A C149 (UniProt Q9NPI6), the “log2 ratio” value is inactive: -0.171.

Take C8orf33 C21 (UniProt Q9H7E9): the “log2 ratio” value is inactive: 0.57.

Regarding RAB18 C160 (UniProt Q9NP72), the “log2 ratio” value was inactive: 0.305.

In the case of STRN4 C580 (UniProt Q9NRL3), the “log2 ratio” value was inactive: 0.138.

In the case of ANLN C71 (UniProt Q9NQW6), the “log2 ratio” value was inactive: 0.51.

In the case of CHD8 C752 (UniProt Q9HCK8), the “log2 ratio” value was inactive: -0.389.

As for GRPEL1 C108 (UniProt Q9HAV7), the “log2 ratio” value is inactive: 0.255.

With PEAK1 C993 (UniProt Q9H792), the “log2 ratio” value was inactive: 0.21.

For SAR1A C178 (UniProt Q9NR31), the “log2 ratio” value was inactive: 0.0354.

As for MDN1 C43 (UniProt Q9NU22), the “log2 ratio” value was active: 1.32.

Turning to DDX31 C286 (UniProt Q9H8H2), the “log2 ratio” value was inactive: -0.0815.

Take STARD7 C302 (UniProt Q9NQZ5): the “log2 ratio” value is inactive: 0.0291.

As to DSN1 C355 (UniProt Q9H410), the “log2 ratio” value is inactive: 0.287.

Take CHD8 C1980 (UniProt Q9HCK8): the “log2 ratio” value is inactive: 0.669.

With UBQLN4 C29 (UniProt Q9NRR5), the “log2 ratio” value is active: 1.12.
